Results are given in words; binding and its absence hold for the method and conditions named. In cells and extracts the contact can be indirect. Some binding calls cover weakened binding; strength is not graded here. Where a sequence is shown, tags or fusion partners need not be part of it.
B1: FLAG-tagged wild-type MCCC2 (amino acids 1–564) (protein, UniProt Q9HCC0-1 23-563)
chain: YHGDSVASLGTQPDLGSALYQENYKQMKALVNQLHERVEHIKLGGGEKARALHISRGKLLPRERIDNLIDPGSPFLELSQFAGYQLYDNEEVPGGGIITGIGRVSGVECMIIANDATVKGGAYYPVTVKKQLRAQEIAMQNRLPCIYLVDSGGAYLPRQADVFPDRDHFGRTFYNQAIMSSKNIAQIAVVMGSCTAGGAYVPAMADENIIVRKQGTIFLAGPPLVKAATGEEVSAEDLGGADLHCRKSGVSDHWALDDHHALHLTRKVVRNLNYQKKLDVTIEPSEEPLFPADELYGIVGANLKRSFDVREVIARIVDGSRFTEFKAFYGDTLVTGFARIFGYPVGIVGNNGVLFSESAKKGTHFVQLCCQRNIPLLFLQNITGFMVGREYEAEGIAKDGAKMVAAVACAQVPKITLIIGGSYGAGNYGMCGRAYSPRFLYIWPNARISVMGGEQAANVLATITKDQRAREGKQFSSADEAALKEPIIKKFEEEGNPYYSSARVWDDGIIDPADTRLVLGLSFSAALNAPIEKTDFGIFRM
B2: FLAG-tagged mutant MCCC2 ∆2–22 (543aa) (protein, UniProt Q9HCC0-1 23-563)
chain: B1 chain
B3: FLAG-tagged mutant MCCC2 ∆343–372 (534aa) (protein, UniProt Q9HCC0-1)
chain: YHGDSVASLGTQPDLGSALYQENYKQMKALVNQLHERVEHIKLGGGEKARALHISRGKLLPRERIDNLIDPGSPFLELSQFAGYQLYDNEEVPGGGIITGIGRVSGVECMIIANDATVKGGAYYPVTVKKQLRAQEIAMQNRLPCIYLVDSGGAYLPRQADVFPDRDHFGRTFYNQAIMSSKNIAQIAVVMGSCTAGGAYVPAMADENIIVRKQGTIFLAGPPLVKAATGEEVSAEDLGGADLHCRKSGVSDHWALDDHHALHLTRKVVRNLNYQKKLDVTIEPSEEPLFPADELYGIVGANLKRSFDVREVIARIVDGSNGVLFSESAKKGTHFVQLCCQRNIPLLFLQNITGFMVGREYEAEGIAKDGAKMVAAVACAQVPKITLIIGGSYGAGNYGMCGRAYSPRFLYIWPNARISVMGGEQAANVLATITKDQRAREGKQFSSADEAALKEPIIKKFEEEGNPYYSSARVWDDGIIDPADTRLVLGLSFSAALNAPIEKTDFGIFRM

Chains of the proteins cited; added tags and fusions are not shown.
UniProt Q15554: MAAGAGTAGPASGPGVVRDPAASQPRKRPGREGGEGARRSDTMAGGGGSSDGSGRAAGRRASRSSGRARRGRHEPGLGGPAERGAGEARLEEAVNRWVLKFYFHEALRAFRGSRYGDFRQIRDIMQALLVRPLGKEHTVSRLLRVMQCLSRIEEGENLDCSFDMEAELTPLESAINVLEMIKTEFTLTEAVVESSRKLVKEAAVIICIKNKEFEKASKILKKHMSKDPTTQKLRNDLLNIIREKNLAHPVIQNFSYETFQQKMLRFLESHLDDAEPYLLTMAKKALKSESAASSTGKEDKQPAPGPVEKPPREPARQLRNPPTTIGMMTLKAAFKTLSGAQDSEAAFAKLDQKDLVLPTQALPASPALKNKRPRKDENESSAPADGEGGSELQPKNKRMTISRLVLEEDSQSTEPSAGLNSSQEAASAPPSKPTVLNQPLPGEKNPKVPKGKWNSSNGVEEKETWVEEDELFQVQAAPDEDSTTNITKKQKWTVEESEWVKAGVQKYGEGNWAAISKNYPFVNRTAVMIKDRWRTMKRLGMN

Target: Telomeric repeat-binding factor 2 (TRF2) (human (endogenous in HCT116)) (UniProt Q15554)
Assay: co-IP; anti-TRF2 antibody (~2 μg) on Protein A/G magnetic beads, IgG as negative control; NP-40 whole-cell lysate, 4 ℃ overnight, eight washes with lysis buffer, immunoblot; extract of MCCC2-FLAG expressing cells (Fig. 4A) or lysates of MCCC2 KO cells stably expressing FLAG-tagged MCCC2 constructs (Fig. 4E)

binding | Binder
binds | B1
binds | B2
binds | B3

— publication PMC10571261
